The source of these data is patent US20150064287A1, “METHOD FOR TREATING ABNORMAL POLYGLUTAMINE-MEDIATED DISEASES” (NATIONAL TAIWAN NORMAL UNIVERSITY, priority 2013, published 2015).

The nature of data set [1]: MTT cytotoxicity assay in HEK-293 cells. The format is cell-based. Particulars: human, one day treatment. Here is the method:
(§1) Cells (5×10^4/well in 48-well dishes) were cultivated at 37° C. incubator containing 5% CO2 for 20 hr and treated with different concentrations of the Gardenia jasminoides extract (5-30 mg/mL) or pure compound (100 nM-1 mM). After one day, 20 μL MTT (3,[4,5-dimethylthiazol-2-yl]-2,5-diphenyl-tetrazolium bromide, 5 mg/mL in PBS; Sigma-Aldrich) was added to cells and incubated for 2 hr. The absorbance of the purple formazan dye was measured at 570 nm by a Bio-Tek μQuant Universal Microplate Spectrophotometer.

The nature of data set [2]: MTT cytotoxicity assay in SH-SY5Y cells. The format is cell-based. Particulars: human, one day treatment. Here is the method:
as §1

What is called IC50 is the concentration at which inhibition is half-maximal. Take `O=C(CCCCCCC(=O)Nc1ccccc1)NO` [SAHA, suberoylanilide hydroxamic acid, reference compound]: the IC50 at 1 day in data set [1] is 380 µM; in data set [2], 20 µM.
